Measured data: PubChem BioAssay AID1259405 (NCATS, 2018)
Shown is a random part of about 50,000 reagents tested. About 4,000 of all reagents (8%) were called active. 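Mouse siRNA library applied to hamster cells; one well for each siRNA.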 Unmarked entries are inactive. The numbers tell different reagents against one gene apart.

Assay: 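Knock-downs that lift recombinant protein yield in hamster ovary cells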 (primary screen)
Cell system: Chinese hamster CHO-K1 ovary cells with stable secreted eGFP expression
Reagent: single siRNA against mouse genes, 0.8 pmol siRNA per well (2 µl of 400 nM stock)
Time to read-out: 3 days
Measurement: 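Percent of the per-plate non-targeting control median for intracellular GFP per well by laser scanning cytometry and for cell viability by ATP luminescence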
Direction: GFP, % of control: higher = more GFP per well, higher productivity; viability (ATP), % of control: higher = more viable cells (more ATP)
Active means: 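a knock-down is called active if GFP reaches 120% or more of non-targeting control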

For Ccl12 #1 the deposit lists GFP, % of control 135 (active); viability (ATP), % of control 103.
Against Ccl12 #2, the values are GFP, % of control 74.4; viability (ATP), % of control 87.4.
With knock-down of Smarcc2 #1 the results were GFP, % of control 28.1; viability (ATP), % of control 75.
For Smarcc2 #2, the values are GFP, % of control 72.9; viability (ATP), % of control 64.4.
For Smarcc2 #3, the entry reads GFP, % of control 45.5; viability (ATP), % of control 53.4.
With knock-down of Rrp8 #1 the results were GFP, % of control 98; viability (ATP), % of control 74.3.
With knock-down of Rrp8 #2 the results were GFP, % of control 142 (active); viability (ATP), % of control 82.2.
Rrp8 #3 scored GFP, % of control 34.6; viability (ATP), % of control 38.6.
With knock-down of Tcl1b1 #1, the record shows GFP, % of control 49.7; viability (ATP), % of control 62.2.
Tcl1b1 #2 gave GFP, % of control 62.6; viability (ATP), % of control 62.5.
Knock-down of Tcl1b1 #3 gave: GFP, % of control 99; viability (ATP), % of control 73.1.
For Sik3 #1 the deposit lists GFP, % of control 127 (active); viability (ATP), % of control 98.9.
After knock-down of Sik3 #2 the results were GFP, % of control 90.8; viability (ATP), % of control 89.6.
After knock-down of Sik3 #3, the screen gave GFP, % of control 61.1; viability (ATP), % of control 46.9.
With knock-down of Trim66 #1, the record shows GFP, % of control 81.3; viability (ATP), % of control 79.7.
Knock-down of Trim66 #2 gave: GFP, % of control 43.4; viability (ATP), % of control 47.2.
Against Trim66 #3, the entry reads GFP, % of control 86.7; viability (ATP), % of control 97.2.
Against Zfp160 #1, the values are GFP, % of control 58.8; viability (ATP), % of control 66.4.
Zfp160 #2 gave GFP, % of control 118; viability (ATP), % of control 101.
Knock-down of Gng2 #1 resulted in: GFP, % of control 113; viability (ATP), % of control 92.7.
With knock-down of Gng2 #2 the results were GFP, % of control 82.3; viability (ATP), % of control 95.3.
Against Gng2 #3, the entry reads GFP, % of control 74.1; viability (ATP), % of control 68.3.
Erg28 #1 showed GFP, % of control 97.5; viability (ATP), % of control 100.
Erg28 #2 scored GFP, % of control 70.9; viability (ATP), % of control 45.2.
Knock-down of Erg28 #3 gave: GFP, % of control 125 (active); viability (ATP), % of control 97.8.
After knock-down of Psma1 #1 the results were GFP, % of control 19.2; viability (ATP), % of control 6.13.
Psma1 #2 showed GFP, % of control 120; viability (ATP), % of control 81.
With knock-down of Psma1 #3 the results were GFP, % of control 22.3; viability (ATP), % of control 13.5.
Knock-down of Utp25 #1 came out at: GFP, % of control 89.4; viability (ATP), % of control 69.7.
Utp25 #2 scored GFP, % of control 18.9; viability (ATP), % of control 46.6.
With knock-down of Utp25 #3, the screen gave GFP, % of control 74.8; viability (ATP), % of control 81.5.
Depletion of Defa5 #1 gave: GFP, % of control 61.7; viability (ATP), % of control 84.
Defa5 #2 showed GFP, % of control 103; viability (ATP), % of control 81.8.
Defa5 #3 gave GFP, % of control 88.1; viability (ATP), % of control 100.
Gucy1b2 #1 showed GFP, % of control 78.8; viability (ATP), % of control 73.1.
With knock-down of Gucy1b2 #2, the record shows GFP, % of control 32.3; viability (ATP), % of control 41.6.
For Gucy1b2 #3 the deposit lists GFP, % of control 41.9; viability (ATP), % of control 42.2.
Against Slc9a7 #1, the values are GFP, % of control 75.6; viability (ATP), % of control 74.3.
Slc9a7 #2 scored GFP, % of control 112; viability (ATP), % of control 117.
Slc9a7 #3 scored GFP, % of control 54; viability (ATP), % of control 61.
